Results from paper PMC8883701.
Results are given in words; binding and its absence hold for the method and conditions named. In cells and extracts the contact can be indirect. Here binding means that the protein was enriched with, or labelled near, the bait; the list need not be complete. Sequences can lack the tags named with a protein.

Chains of the proteins cited; added tags and fusions are not shown.
UniProt P09874: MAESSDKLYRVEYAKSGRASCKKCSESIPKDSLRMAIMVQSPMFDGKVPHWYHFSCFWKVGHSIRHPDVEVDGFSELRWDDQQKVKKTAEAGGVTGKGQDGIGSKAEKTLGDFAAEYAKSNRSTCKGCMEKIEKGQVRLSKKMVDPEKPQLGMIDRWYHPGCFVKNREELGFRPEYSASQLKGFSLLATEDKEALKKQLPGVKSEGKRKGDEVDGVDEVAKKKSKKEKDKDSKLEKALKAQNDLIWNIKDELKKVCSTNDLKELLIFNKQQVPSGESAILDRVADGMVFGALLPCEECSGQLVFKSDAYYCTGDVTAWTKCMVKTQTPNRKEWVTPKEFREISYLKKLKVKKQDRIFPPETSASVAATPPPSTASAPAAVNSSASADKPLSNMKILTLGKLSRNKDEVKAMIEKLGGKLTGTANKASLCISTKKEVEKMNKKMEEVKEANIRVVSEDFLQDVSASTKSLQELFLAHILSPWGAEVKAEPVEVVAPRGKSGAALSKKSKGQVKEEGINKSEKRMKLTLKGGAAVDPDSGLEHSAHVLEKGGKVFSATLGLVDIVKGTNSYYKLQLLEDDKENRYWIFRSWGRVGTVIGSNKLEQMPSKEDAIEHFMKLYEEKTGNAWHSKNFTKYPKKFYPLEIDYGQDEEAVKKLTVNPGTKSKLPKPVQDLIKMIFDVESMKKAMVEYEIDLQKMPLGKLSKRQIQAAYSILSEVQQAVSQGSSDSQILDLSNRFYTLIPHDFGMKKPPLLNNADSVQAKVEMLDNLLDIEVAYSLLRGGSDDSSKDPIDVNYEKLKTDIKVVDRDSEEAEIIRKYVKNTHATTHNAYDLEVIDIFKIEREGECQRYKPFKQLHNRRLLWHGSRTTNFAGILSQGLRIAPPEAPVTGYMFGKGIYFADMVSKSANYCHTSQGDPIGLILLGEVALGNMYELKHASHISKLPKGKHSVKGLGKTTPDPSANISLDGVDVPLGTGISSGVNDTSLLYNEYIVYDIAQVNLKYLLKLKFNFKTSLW

Molecular target: T1, FLAG-tagged LAP2α (wild type) (UniProt P42166)
T1 sequence: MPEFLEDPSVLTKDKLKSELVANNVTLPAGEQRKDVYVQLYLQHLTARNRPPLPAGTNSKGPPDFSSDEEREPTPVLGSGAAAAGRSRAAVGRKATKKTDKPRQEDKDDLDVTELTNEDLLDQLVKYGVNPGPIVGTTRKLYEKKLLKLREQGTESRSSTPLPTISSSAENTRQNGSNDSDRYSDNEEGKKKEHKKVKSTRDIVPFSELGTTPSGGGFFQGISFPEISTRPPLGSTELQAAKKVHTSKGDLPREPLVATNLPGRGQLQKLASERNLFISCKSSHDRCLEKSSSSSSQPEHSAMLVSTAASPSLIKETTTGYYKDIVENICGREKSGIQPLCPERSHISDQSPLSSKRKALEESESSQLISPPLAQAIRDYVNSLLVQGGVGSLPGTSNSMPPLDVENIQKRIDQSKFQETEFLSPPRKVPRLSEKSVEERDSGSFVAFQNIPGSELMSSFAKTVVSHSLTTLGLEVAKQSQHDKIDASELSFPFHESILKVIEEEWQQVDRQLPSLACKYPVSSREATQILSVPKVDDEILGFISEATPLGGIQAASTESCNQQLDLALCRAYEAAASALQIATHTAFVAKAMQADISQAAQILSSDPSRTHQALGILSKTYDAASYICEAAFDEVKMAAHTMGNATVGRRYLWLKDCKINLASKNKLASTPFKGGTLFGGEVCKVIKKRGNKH
Test: affinity purification with mass spectrometry; HeLa cells stably expressing FLAG-LAP2α

- binding: binds
Substance: poly(ADP-ribose) polymerase 1 (PARP1) (from UniProt P09874 1-1014) (enzyme)
